Some of the results follow.
Legend:
Assay in all cases: log2 fold change, soluble protein after heating vs DMSO (PISA); higher = thermal stabilisation; K562 lysate, 10 uM; active = over 0.2 and 3.5 SD of the protein, either way, in both replicates (recomputed)
alvocidib = compound: CN1CC[C@H](c2c(O)cc(O)c3c(=O)cc(-c4ccccc4Cl)oc23)[C@H](O)C1 [alvocidib]
Method in brief: (§1)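 To prepare the extract, K562 pellets were dounce-homogenised in PBS pH 7.4 with 1 mM MgCl2, giving crude material at 1 mg/mL protein. This was treated with 10 μM compound for 30 min, then heated in aliquots for 3 min over 48°C-58°C before pooling and addition of NP-40 to 0.5% at 4°C. Centrifugation at 21,000xg for 90 min left soluble protein in the supernatant, which TMTpro 16plex LC-MS/MS quantified with equalised channel sums. Results are log-two fold changes in thermal stability compared with solvent controls, from duplicates.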

Amino acid sequences for entries named in this document (tags omitted). A change or cut given only in a name is not applied to a line headed by its entry.
UniProt Q9C0D7: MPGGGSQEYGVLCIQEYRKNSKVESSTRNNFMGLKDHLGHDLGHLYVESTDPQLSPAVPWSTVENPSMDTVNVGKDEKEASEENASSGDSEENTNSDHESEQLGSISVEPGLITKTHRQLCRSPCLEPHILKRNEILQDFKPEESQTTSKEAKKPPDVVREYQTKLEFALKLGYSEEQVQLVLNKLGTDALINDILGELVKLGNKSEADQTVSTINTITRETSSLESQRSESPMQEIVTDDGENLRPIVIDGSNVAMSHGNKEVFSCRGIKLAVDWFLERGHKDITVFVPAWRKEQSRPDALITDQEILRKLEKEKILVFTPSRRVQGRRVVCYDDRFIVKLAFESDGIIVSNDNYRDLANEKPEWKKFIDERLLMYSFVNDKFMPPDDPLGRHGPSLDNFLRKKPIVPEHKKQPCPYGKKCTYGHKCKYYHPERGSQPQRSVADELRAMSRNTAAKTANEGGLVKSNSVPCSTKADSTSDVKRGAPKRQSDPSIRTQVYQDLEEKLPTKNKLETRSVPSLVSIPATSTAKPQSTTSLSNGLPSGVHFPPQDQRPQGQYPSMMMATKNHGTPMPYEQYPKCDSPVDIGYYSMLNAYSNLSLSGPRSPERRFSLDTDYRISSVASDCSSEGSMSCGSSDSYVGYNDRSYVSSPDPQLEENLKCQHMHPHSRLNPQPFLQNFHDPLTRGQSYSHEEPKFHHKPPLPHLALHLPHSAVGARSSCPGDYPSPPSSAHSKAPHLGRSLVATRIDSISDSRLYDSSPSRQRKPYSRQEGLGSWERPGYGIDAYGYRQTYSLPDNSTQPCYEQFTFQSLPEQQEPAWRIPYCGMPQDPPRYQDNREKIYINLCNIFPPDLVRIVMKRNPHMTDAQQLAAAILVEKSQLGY
UniProt Q8IZ13: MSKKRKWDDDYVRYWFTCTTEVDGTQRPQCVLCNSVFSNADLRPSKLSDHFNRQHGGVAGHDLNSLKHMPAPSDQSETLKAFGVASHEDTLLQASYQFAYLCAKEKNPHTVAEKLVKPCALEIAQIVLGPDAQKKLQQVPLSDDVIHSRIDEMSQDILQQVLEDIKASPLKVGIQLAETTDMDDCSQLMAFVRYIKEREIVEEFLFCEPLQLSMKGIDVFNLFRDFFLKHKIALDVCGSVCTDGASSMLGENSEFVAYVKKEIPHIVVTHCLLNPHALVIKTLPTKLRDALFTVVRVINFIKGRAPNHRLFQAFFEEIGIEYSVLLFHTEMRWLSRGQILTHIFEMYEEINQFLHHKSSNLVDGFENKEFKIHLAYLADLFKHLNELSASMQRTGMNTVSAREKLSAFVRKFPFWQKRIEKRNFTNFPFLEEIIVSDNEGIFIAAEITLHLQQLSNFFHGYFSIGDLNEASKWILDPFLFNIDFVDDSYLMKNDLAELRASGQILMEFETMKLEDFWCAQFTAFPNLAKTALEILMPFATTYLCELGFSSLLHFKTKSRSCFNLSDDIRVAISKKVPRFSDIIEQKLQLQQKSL
UniProt Q8WW38: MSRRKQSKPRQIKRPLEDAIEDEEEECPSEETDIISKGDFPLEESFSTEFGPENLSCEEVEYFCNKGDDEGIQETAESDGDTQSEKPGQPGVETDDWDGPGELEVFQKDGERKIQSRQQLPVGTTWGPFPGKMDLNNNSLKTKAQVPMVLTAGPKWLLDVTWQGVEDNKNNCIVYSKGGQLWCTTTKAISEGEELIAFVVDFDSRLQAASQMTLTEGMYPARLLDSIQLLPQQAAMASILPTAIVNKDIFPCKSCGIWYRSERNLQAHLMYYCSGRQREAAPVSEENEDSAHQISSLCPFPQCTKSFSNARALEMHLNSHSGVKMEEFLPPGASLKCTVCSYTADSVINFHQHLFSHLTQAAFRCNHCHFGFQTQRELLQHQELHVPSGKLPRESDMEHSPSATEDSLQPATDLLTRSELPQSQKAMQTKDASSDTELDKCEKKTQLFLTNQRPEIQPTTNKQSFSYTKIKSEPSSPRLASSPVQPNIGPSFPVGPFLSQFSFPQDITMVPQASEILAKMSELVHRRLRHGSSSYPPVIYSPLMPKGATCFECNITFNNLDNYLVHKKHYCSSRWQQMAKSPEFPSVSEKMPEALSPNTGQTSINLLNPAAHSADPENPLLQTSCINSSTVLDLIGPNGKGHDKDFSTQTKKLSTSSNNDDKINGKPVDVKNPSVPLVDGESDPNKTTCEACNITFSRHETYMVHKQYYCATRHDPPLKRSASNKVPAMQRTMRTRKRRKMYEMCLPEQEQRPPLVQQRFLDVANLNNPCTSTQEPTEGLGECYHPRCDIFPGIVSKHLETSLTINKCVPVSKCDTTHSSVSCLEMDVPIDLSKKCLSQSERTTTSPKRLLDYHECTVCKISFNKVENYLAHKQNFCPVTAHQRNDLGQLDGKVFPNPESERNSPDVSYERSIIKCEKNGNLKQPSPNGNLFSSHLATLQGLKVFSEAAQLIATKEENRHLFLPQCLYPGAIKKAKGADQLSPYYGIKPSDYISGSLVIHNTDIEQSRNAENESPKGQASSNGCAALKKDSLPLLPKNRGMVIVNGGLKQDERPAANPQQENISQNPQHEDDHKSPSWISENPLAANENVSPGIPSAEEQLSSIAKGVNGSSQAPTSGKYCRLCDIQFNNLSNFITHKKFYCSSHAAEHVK
UniProt P17010: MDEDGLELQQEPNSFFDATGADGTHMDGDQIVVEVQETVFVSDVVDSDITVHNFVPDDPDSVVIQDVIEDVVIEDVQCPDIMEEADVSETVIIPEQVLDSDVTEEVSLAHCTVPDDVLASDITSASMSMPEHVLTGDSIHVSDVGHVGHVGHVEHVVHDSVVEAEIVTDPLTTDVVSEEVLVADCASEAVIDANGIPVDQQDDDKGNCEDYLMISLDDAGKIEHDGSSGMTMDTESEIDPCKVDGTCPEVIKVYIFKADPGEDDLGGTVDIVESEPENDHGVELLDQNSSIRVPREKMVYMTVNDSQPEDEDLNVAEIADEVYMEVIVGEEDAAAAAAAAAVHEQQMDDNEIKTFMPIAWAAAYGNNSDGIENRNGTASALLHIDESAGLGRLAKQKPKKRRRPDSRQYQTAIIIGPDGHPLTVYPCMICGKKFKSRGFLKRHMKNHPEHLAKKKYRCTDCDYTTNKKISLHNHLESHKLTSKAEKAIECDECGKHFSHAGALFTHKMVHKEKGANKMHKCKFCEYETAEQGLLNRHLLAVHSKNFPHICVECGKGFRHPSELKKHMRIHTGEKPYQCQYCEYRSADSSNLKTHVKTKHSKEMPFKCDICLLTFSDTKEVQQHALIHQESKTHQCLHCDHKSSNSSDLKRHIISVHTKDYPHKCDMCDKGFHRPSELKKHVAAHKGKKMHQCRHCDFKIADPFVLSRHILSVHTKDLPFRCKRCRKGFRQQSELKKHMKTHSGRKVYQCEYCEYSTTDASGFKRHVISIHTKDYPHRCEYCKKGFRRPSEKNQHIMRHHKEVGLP
UniProt Q8NCP5: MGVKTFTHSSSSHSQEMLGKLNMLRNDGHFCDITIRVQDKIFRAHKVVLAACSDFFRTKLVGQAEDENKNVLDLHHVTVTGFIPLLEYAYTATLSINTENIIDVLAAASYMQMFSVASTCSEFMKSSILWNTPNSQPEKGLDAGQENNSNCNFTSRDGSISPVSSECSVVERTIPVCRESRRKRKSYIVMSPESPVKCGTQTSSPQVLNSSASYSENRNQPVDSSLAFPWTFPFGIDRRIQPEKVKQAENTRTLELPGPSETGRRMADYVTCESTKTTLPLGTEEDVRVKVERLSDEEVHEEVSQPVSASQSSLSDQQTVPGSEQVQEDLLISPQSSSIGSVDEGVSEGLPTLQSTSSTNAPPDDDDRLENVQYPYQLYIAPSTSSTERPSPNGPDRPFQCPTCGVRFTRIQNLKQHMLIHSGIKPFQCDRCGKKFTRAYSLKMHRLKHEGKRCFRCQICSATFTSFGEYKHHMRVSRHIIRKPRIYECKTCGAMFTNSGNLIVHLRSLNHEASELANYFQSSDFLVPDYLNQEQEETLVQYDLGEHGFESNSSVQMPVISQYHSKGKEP
UniProt O15062: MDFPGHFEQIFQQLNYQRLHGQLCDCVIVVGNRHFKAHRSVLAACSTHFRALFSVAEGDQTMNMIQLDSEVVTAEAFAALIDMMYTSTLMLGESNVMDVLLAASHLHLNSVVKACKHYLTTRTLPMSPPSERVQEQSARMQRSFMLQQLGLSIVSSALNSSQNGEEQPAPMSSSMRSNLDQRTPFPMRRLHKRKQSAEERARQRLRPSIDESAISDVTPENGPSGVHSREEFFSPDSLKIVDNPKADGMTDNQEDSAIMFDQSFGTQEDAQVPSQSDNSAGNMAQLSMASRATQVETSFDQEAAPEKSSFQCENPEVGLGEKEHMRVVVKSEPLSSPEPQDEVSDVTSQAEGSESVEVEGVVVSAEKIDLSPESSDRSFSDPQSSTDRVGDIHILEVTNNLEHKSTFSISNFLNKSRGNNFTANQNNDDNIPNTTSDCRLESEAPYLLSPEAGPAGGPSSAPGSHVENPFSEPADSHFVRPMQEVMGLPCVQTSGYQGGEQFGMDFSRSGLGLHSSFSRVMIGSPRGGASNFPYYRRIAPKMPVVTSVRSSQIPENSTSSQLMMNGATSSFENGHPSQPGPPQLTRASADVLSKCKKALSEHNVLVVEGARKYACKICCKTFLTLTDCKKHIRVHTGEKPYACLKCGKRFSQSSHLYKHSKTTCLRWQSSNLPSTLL
UniProt Q9P243: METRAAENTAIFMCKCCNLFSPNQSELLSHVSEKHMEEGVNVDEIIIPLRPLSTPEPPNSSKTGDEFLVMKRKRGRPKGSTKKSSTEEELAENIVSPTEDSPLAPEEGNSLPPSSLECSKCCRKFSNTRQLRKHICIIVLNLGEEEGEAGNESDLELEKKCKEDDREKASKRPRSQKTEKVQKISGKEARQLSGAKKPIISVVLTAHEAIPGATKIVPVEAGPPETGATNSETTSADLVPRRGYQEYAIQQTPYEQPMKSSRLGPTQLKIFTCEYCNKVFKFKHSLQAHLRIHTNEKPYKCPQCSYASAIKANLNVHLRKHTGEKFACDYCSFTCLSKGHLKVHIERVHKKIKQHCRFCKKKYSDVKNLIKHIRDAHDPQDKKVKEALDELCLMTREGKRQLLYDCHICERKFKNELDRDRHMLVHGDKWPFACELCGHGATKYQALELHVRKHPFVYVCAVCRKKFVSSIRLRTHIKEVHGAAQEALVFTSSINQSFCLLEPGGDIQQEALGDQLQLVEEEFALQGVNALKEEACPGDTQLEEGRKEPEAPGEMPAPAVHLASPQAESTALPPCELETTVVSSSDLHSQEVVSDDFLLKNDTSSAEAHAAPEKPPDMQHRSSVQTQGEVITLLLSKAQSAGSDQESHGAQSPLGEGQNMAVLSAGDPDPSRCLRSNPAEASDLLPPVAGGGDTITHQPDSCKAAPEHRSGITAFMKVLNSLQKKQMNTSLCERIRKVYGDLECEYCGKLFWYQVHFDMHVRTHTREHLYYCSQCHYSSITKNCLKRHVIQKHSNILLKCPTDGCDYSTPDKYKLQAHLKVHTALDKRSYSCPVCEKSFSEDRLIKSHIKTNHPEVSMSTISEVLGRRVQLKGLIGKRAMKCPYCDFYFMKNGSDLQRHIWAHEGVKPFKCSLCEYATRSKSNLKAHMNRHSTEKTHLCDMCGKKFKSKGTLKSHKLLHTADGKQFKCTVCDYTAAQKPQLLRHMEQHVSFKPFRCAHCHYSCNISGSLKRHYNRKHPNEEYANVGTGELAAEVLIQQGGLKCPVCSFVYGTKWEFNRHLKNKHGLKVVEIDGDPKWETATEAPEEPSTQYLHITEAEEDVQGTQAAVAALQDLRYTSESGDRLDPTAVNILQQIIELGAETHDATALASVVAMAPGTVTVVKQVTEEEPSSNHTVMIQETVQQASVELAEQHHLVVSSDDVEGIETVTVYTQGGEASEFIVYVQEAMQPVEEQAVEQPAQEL
UniProt O15156: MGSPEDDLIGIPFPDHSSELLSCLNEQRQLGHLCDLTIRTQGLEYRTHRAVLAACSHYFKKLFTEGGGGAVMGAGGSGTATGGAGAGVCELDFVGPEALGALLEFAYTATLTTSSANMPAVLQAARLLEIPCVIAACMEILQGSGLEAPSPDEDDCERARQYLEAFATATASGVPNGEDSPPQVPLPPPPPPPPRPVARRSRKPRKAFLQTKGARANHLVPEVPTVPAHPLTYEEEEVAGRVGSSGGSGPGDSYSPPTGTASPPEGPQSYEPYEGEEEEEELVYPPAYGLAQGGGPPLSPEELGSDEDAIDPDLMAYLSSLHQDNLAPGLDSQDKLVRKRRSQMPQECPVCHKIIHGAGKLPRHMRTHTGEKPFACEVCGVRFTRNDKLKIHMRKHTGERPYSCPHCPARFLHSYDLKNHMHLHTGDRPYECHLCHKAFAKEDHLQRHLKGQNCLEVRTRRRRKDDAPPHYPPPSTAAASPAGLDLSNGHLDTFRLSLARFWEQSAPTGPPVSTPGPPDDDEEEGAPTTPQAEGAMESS

Tubastatin A = compound: CN1CCc2c(c3ccccc3n2Cc2ccc(C(=O)NO)cc2)C1 [Tubastatin A]
Method in brief: as §1

[1] = compound: CNC(=O)C1=CC=CC=C1NC2=NC(=NC=C2Cl)NC3=C(C=C(C=C3)N4CCOCC4)OC
Method in brief: as §1

[2] = compound: CNc1nc(-c2ccc3c(N)n[nH]c3c2)cc(N2C[C@@H](C(=O)NC3CCCCC3)CC[C@H]2C)n1
Method in brief: as §1

[3] = compound: COc1cc2nc(-c3cc(F)ccc3O)nc(N[C@@H]3CNC[C@H]3C(C)(C)O)c2cc1OC
Method in brief: as §1

lapatinib = compound: CS(=O)(=O)CCNCc1ccc(-c2ccc3ncnc(Nc4ccc(OCc5cccc(F)c5)c(Cl)c4)c3c2)o1 [lapatinib]
Method in brief: as §1

pictilisib = compound: CS(=O)(=O)N1CCN(Cc2cc3nc(-c4cccc5[nH]ncc45)nc(N4CCOCC4)c3s2)CC1 [pictilisib]
Method in brief: as §1

crizotinib = compound: C[C@@H](Oc1cc(-c2cnn(C3CCNCC3)c2)cnc1N)c1c(Cl)ccc(F)c1Cl [crizotinib]
Method in brief: as §1

[4] = compound: C[C@H](C1=CC=C(C=C1)C(=O)NC2=C3C=CNC3=NC=C2)N
Method in brief: as §1

duvelisib = compound: C[C@H](Nc1ncnc2nc[nH]c12)c1cc2cccc(Cl)c2c(=O)n1-c1ccccc1 [duvelisib]
Method in brief: as §1

gandotinib = compound: Cc1cc(Nc2cc(CN3CCOCC3)c3nc(C)c(Cc4ccc(Cl)cc4F)n3n2)n[nH]1 [gandotinib]
Method in brief: as §1

doramapimod = compound: Cc1ccc(-n2nc(C(C)(C)C)cc2NC(=O)Nc2ccc(OCCN3CCOCC3)c3ccccc23)cc1 [doramapimod]
Method in brief: as §1

bafetinib = compound: Cc1ccc(NC(=O)c2ccc(CN3CC[C@H](N(C)C)C3)c(C(F)(F)F)c2)cc1Nc1nccc(-c2cncnc2)n1 [bafetinib]
Method in brief: as §1

[5] = compound: Cc1cccc(CC(=O)N2CCc3c2ccc(-c2cn(C)c4ncnc(N)c24)c3F)n1
Method in brief: as §1

defactinib = compound: CNC(=O)c1ccc(Nc2ncc(C(F)(F)F)c(NCc3nccnc3N(C)S(C)(=O)=O)n2)cc1 [defactinib]
Method in brief: as §1

encorafenib = compound: COC(=O)N[C@@H](C)CNc1nccc(-c2cn(C(C)C)nc2-c2cc(Cl)cc(NS(C)(=O)=O)c2F)n1 [encorafenib]
Method in brief: as §1

[6] = compound: COC(=O)[C@H](CCSC)NC(=O)C1=C(C=C(C=C1)NC[C@H](CS)N)C2=CC=CC=C2
Method in brief: as §1

alisertib = compound: COc1cc(Nc2ncc3c(n2)-c2ccc(Cl)cc2C(c2c(F)cccc2OC)=NC3)ccc1C(=O)O [alisertib]
Method in brief: as §1

gefitinib = compound: COc1cc2ncnc(Nc3ccc(F)c(Cl)c3)c2cc1OCCCN1CCOCC1 [gefitinib]
Method in brief: as §1

tozasertib = compound: Cc1cc(Nc2cc(N3CCN(C)CC3)nc(Sc3ccc(NC(=O)C4CC4)cc3)n2)n[nH]1 [tozasertib]
Method in brief: as §1

Measured: log2 fold change

ZC3H12C isoform 2 (UniProt Q9C0D7)
inactive: alvocidib -0.252 | Tubastatin A -0.147 | [1] -0.057 | [2] -0.026 | [3] -0.204 | lapatinib -0.04 | pictilisib -0.251 | crizotinib -0.107 | [4] -0.005 | duvelisib 0.137 | gandotinib -0.086 | doramapimod -0.019 | bafetinib 0.058 | [5] -0.124

ZCCHC4 (UniProt Q9H5U6)
inactive: alvocidib -0.082 | defactinib -0.012 | [2] 0.221 | encorafenib -0.28 | [6] 0.156 | alisertib 0.081 | gefitinib 0.044 | [4] 0.334 | duvelisib -0.033 | gandotinib 0.055 | tozasertib 0.033 | [5] -0.076

ZFAND3 (UniProt Q9H8U3)
inactive: alvocidib -0.004 | Tubastatin A 0.064 | defactinib 0.036 | [2] 0.009 | encorafenib 0.022 | [6] -0.058 | [3] -0.023 | lapatinib -0.095 | pictilisib -0.057 | crizotinib 0.105 | [4] 0.114 | duvelisib 0.01 | gandotinib -0.041 | tozasertib -0.038 | doramapimod 0.101 | bafetinib 0.093 | [5] -0.058

ZBED8 (UniProt Q8IZ13)
inactive: Tubastatin A 0.025 | [1] 0.117 | defactinib 0.042 | [2] -0.017 | encorafenib -0.066 | [6] 0.045 | alisertib -0.05 | [3] 0.026 | gefitinib -0.049 | lapatinib -0.026 | pictilisib 0.049 | crizotinib -0.037 | duvelisib 0.048 | tozasertib -0.224 | doramapimod -0.023 | bafetinib -0.019

ZFPM2 (UniProt Q8WW38)
inactive: alvocidib 0.066 | [1] 0.069 | defactinib 0.07 | [2] -0.018 | encorafenib -0.187 | [6] 0.07 | pictilisib -0.398 | crizotinib -0.228 | [4] 0.033 | duvelisib 0.019 | gandotinib -0.225 | tozasertib -0.1 | doramapimod 0.118 | bafetinib -0.094 | [5] -0.034

ZDHHC17 (UniProt Q8IUH5)
inactive: alvocidib -0.44 | Tubastatin A 0.074 | defactinib -0.053 | [2] -0.04 | encorafenib -0.044 | [6] 0.183 | alisertib 0.037 | [3] -0.032 | gefitinib 0.24 | lapatinib 0.042 | crizotinib 0.098 | duvelisib -0.301 | gandotinib 0.037 | tozasertib -0.025 | doramapimod 0.11 | [5] 0.17
active: [4] -0.778

2 consecutive entries already listed:
ZBED8 (UniProt Q8IZ13)
inactive: Tubastatin A 0.025 | [1] 0.117 | defactinib 0.042 | [2] -0.017 | encorafenib -0.066 | [6] 0.045 | alisertib -0.05 | [3] 0.026 | gefitinib -0.049 | lapatinib -0.026 | pictilisib 0.049 | crizotinib -0.037 | duvelisib 0.048 | tozasertib -0.224 | doramapimod -0.023 | bafetinib -0.019

ZFPM2 (UniProt Q8WW38)
inactive: alvocidib 0.066 | [1] 0.069 | defactinib 0.07 | [2] -0.018 | encorafenib -0.187 | [6] 0.07 | pictilisib -0.398 | crizotinib -0.228 | [4] 0.033 | duvelisib 0.019 | gandotinib -0.225 | tozasertib -0.1 | doramapimod 0.118 | bafetinib -0.094 | [5] -0.034

(listing goes on)

ZEB2 (UniProt O60315)
inactive: Tubastatin A -0.065 | [1] 0.003 | defactinib 0.076 | [2] -0.024 | encorafenib 0.057 | [6] -0.043 | alisertib -0.375 | [3] 0.043 | gefitinib -0.151 | lapatinib -0.179 | pictilisib 0.141 | crizotinib 0.014 | duvelisib 0.045 | tozasertib 0.02 | doramapimod -0.049 | bafetinib -0.117

ZCCHC9 (UniProt Q8N567)
inactive: Tubastatin A -0.012 | [1] 0.012 | defactinib -0.043 | [2] 0.004 | encorafenib 0.109 | [6] -0.028 | [3] -0.025 | lapatinib -0.102 | pictilisib 0.076 | crizotinib -0.075 | duvelisib 0.034 | tozasertib 0.016 | doramapimod -0.039 | bafetinib 0.027

ZC3H12A (UniProt Q5D1E8)
inactive: Tubastatin A -0.037 | [1] -0.115 | [2] -0.177 | encorafenib 0.08 | [6] -0.03 | alisertib -0.109 | gefitinib 0.177 | crizotinib 0.083 | duvelisib 0.378 | tozasertib -0.093 | doramapimod -0.073

ZFYVE19 isoform 3 (UniProt Q96K21)
inactive: [3] -0.006 | lapatinib 0.114 | pictilisib -0.02 | bafetinib -0.013

ZFX isoform 3 (UniProt P17010)
inactive: Tubastatin A -0.099 | [2] -0.052 | [3] -0.082 | lapatinib -0.01 | crizotinib 0.082 | duvelisib 0.124 | doramapimod 0.102

ZBTB34 (UniProt Q8NCN2)
inactive: Tubastatin A -0.154 | [2] 0.253 | [3] -0.018 | lapatinib 0.043 | pictilisib -0.244 | duvelisib 0.082 | bafetinib -0.217

ZBED5 (UniProt Q49AG3)
inactive: [1] -0.051 | [2] 0.036 | duvelisib -0.087

XPOT (UniProt F5GYW6)
inactive: [3] 0.121 | lapatinib -0.115

ZC3H14 isoform 11 (UniProt Q6PJT7)
inactive: crizotinib -0.022 | doramapimod 0.05

ZFP92 (UniProt A6NM28)
inactive: defactinib 0.288 | encorafenib 0.136 | [6] 0.05 | tozasertib -0.058

YBEY (UniProt P58557)
inactive: [1] -0.056 | defactinib 0.016 | [2] -0.066 | encorafenib -0.037 | [6] 0.071 | duvelisib 0.049 | tozasertib 0.035

YBX2 (UniProt Q9Y2T7)
inactive: pictilisib -0.338 | bafetinib -0.03

ZBTB44 (UniProt Q8NCP5)
inactive: crizotinib -0.133 | doramapimod 0.036

ZCCHC7 (UniProt Q8N3Z6)
inactive: [2] -0.109 | alisertib -0.085 | gefitinib 0.152 | crizotinib -0.045 | duvelisib 0.054 | doramapimod -0.073

ZCCHC10 (UniProt Q8TBK6)
inactive: Tubastatin A -0.228 | [2] 0.222 | encorafenib -0.098 | [6] 0.105 | pictilisib -0.078 | crizotinib 0.041 | duvelisib -0.125 | tozasertib 0.013 | doramapimod 0.003 | bafetinib 0.084

ZBTB17 isoform 2 (UniProt Q13105)
inactive: [1] -0.076 | [2] 0.027 | [3] 0.015 | lapatinib -0.085 | pictilisib -0.037 | crizotinib -0.113 | duvelisib -0.038 | doramapimod -0.073 | bafetinib -0.2

XRCC5 (UniProt C9JZ81)
inactive: alisertib -0.022 | [3] 0.103 | gefitinib 0.23 | lapatinib -0.111

ZBTB5 (UniProt O15062)
inactive: Tubastatin A -0.02 | [1] -0.003 | defactinib 0.2 | [2] 0.038 | encorafenib 0.234 | [6] 0.063 | crizotinib 0.031 | duvelisib 0.003 | tozasertib -0.144 | doramapimod 0.07

ZBTB43 (UniProt O43298)
inactive: Tubastatin A 0.016 | [1] 0.081 | defactinib -0.106 | [2] 0.022 | encorafenib -0.025 | [6] -0.047 | [3] -0.01 | lapatinib 0.057 | crizotinib 0.046 | duvelisib 0.011 | tozasertib 0.015 | doramapimod -0.03

ZFAT (UniProt Q9P243)
inactive: [1] 0.015 | encorafenib -0.015 | [6] 0.007 | alisertib 0.12 | gefitinib 0.171 | tozasertib 0.045

ZBTB7B isoform 2 (UniProt O15156)
inactive: [2] 0.007 | pictilisib -0.386 | crizotinib -0.114 | duvelisib -0.027 | doramapimod 0.018 | bafetinib 0.019

ZBTB39 (UniProt O15060)
inactive: Tubastatin A 0.2 | [2] 0.161 | duvelisib -0.094

ZBED6 (UniProt P86452)
inactive: Tubastatin A 0.096 | [1] -0.063 | [2] 0.33 | [3] 0.179 | lapatinib -0.01 | duvelisib -0.053

XRCC1 (UniProt F5H8D7)
inactive: [1] -0.31 | defactinib 0.378 | [2] 0.157 | encorafenib 0.031 | [6] -0.043 | pictilisib 0.007 | duvelisib -0.088 | tozasertib 0.072 | bafetinib -0.128

YIPF1 (UniProt Q9Y548)
inactive: [2] 0.092 | alisertib 0.157 | [3] 0.046 | gefitinib -0.006 | lapatinib 0.101 | pictilisib 0.059 | crizotinib 0.009 | duvelisib -0.129 | doramapimod -0.021 | bafetinib -0.056
